Results as given in article PMC7335352.
For at least one entry, the source does not settle the construct or the ends of the probe. At least one verdict was read from the data and is not stated in words by the source.

Tests used:
[1] = test system: condensin II-ybbR, Alexa647 (Homo sapiens); assay: EMSA; details: fluorophore did not affect binding; EMSA: 20 mM HEPES pH 8, 300 mM KCl, 5 mM MgCl2, 1 mM DTT, 10% glycerol, on ice; recombinant protein; label: 6-FAM on reverse strand
[2] = test system: condensin I-ybbR, Alexa647 (Homo sapiens); assay: EMSA; details: fluorophore did not affect binding; EMSA: 20 mM HEPES pH 8, 300 mM KCl, 5 mM MgCl2, 1 mM DTT, 10% glycerol, on ice; recombinant protein; label: 6-FAM on reverse strand

## CTGTCACACCCTGTCACACCTGTCACAC (double strand) [30-bp dsDNA, 6-FAM]
[1]
  binding result: binds
[2]
  binding result: binds
